Data source: PubChem BioAssay AID1259331 (Drosophila RNAi Screening Center, 2017)
The deposit covers about 3,100 reagents; shown is a random part of them. Of all reagents, 126 (4.1%) are marked active. 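Calls are per reagent; zinc was so toxic that few knock-downs lowered ATP further, so most hits raise ATP.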 The raw values are shown without normalisation. Not given: the amount of reagent.

- Aim: 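Genes whose knock-down changes cell survival under toxic zinc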 (primary screen)
- Cells: Drosophila S2R+ cells
- Reagents: long dsRNA against Drosophila genes
- Time to read-out: 5 days (4 days knock-down, then 1 day zinc)
- Conditions: zinc chloride at 15 mM final level for 1 day
- Measurement: 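Total cellular ATP measured by luciferase luminescence as a viability proxy, turned into Z scores from three plate copies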
- Reading the numbers: mean Z score: higher = more ATP than other wells, better survival under zinc; ATP luminescence: higher = more ATP, more viable cells
- Hit rule: 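Hit when the absolute Z score is greater than 1.5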
- Calls: active = hit, ATP up or down; inactive = not a hit

CG34433 [DRSC15077] | mean Z score = 0.0406; ATP luminescence, replicate 1 = 65852; ATP luminescence, replicate 2 = 67612; Call = inactive
5-HT2B [DRSC16360] | mean Z score = -0.295; ATP luminescence, replicate 1 = 36285; ATP luminescence, replicate 2 = 54819; Call = inactive
5-HT2B [DRSC16362] | mean Z score = -0.682; ATP luminescence, replicate 1 = 35839; ATP luminescence, replicate 2 = 47994; Call = inactive
5-HT2B [DRSC25577] | mean Z score = -0.305; ATP luminescence, replicate 1 = 48852; ATP luminescence, replicate 2 = 52744; Call = inactive
Oct-TyrR [DRSC11883] | mean Z score = 2.68; ATP luminescence, replicate 1 = 1.26e5; ATP luminescence, replicate 2 = 1.02e5; Call = active
Oct-TyrR [DRSC39865] | mean Z score = -0.119; ATP luminescence, replicate 1 = 58574; ATP luminescence, replicate 2 = 58145; Call = inactive
Nha2 [DRSC14689] | mean Z score = 0.275; ATP luminescence, replicate 1 = 34587; ATP luminescence, replicate 2 = 61146; Call = inactive
Nha2 [DRSC15623] | mean Z score = 0.191; ATP luminescence, replicate 1 = 45988; ATP luminescence, replicate 2 = 44325; Call = inactive
mthl8 [DRSC08211] | mean Z score = -0.183; ATP luminescence, replicate 1 = 31125; ATP luminescence, replicate 2 = 30542; Call = inactive
mthl8 [DRSC08311] | mean Z score = -0.551; ATP luminescence, replicate 1 = 65485; ATP luminescence, replicate 2 = 61970; Call = inactive
GC2 [DRSC14476] | mean Z score = -0.227; ATP luminescence, replicate 1 = 36696; ATP luminescence, replicate 2 = 57087; Call = inactive
GC2 [DRSC27370] | mean Z score = 0.659; ATP luminescence, replicate 1 = 69858; ATP luminescence, replicate 2 = 69057; Call = inactive
hrm [DRSC04853] | mean Z score = -0.125; ATP luminescence, replicate 1 = 1.07e5; ATP luminescence, replicate 2 = 70973; Call = inactive
mthl9 [DRSC08506] | mean Z score = -0.0562; ATP luminescence, replicate 1 = 69498; ATP luminescence, replicate 2 = 69618; Call = inactive
mthl9 [DRSC39784] | mean Z score = -0.425; ATP luminescence, replicate 1 = 48410; ATP luminescence, replicate 2 = 52144; Call = inactive

Laid out differently: 2 of the entries above
target gene | DRSC id | mean Z score | ATP luminescence, replicate 1 | ATP luminescence, replicate 2 | Call
5-HT2B | DRSC25577 | -0.305 | 48852 | 52744 | inactive
Oct-TyrR | DRSC11883 | 2.68 | 1.26e5 | 1.02e5 | active

The list goes on.
Gr22e [DRSC20912] | mean Z score = -0.614; ATP luminescence, replicate 1 = 42354; ATP luminescence, replicate 2 = 31404; Call = inactive
Ser [DRSC16856] | mean Z score = 0.524; ATP luminescence, replicate 1 = 71591; ATP luminescence, replicate 2 = 77945; Call = inactive
Ser [DRSC25494] | mean Z score = -0.637; ATP luminescence, replicate 1 = 34159; ATP luminescence, replicate 2 = 52572; Call = inactive
CNT1 [DRSC06082] | mean Z score = -0.201; ATP luminescence, replicate 1 = 95468; ATP luminescence, replicate 2 = 70716; Call = inactive
CNT1 [DRSC29671] | mean Z score = -0.247; ATP luminescence, replicate 1 = 49606; ATP luminescence, replicate 2 = 65708; Call = inactive
CG4476 [DRSC10424] | mean Z score = 0.0679; ATP luminescence, replicate 1 = 72002; ATP luminescence, replicate 2 = 64885; Call = inactive
CG4476 [DRSC25362] | mean Z score = 0.222; ATP luminescence, replicate 1 = 61438; ATP luminescence, replicate 2 = 68246; Call = inactive
NaPi-T [DRSC07476] | mean Z score = -0.0575; ATP luminescence, replicate 1 = 65382; ATP luminescence, replicate 2 = 72637; Call = inactive
NaPi-T [DRSC24468] | mean Z score = -0.755; ATP luminescence, replicate 1 = 43519; ATP luminescence, replicate 2 = 54299; Call = inactive
